Test results as given in patent US11154519B2, “Inhibitors and their uses” (MEDICAL RESEARCH COUNCIL, priority 2015, dated 2021).
No constants are given. Whether binding was seen depends on the method and setting. Some entries that bind do so weakly or less than the wild type.

Protein sequences, listed by entry. Tags and fused reporters are not part of them. Lines headed by an entry give the natural chain unless they say otherwise; changes in a name come on top. Residues count along the entry.
UniProt P36873: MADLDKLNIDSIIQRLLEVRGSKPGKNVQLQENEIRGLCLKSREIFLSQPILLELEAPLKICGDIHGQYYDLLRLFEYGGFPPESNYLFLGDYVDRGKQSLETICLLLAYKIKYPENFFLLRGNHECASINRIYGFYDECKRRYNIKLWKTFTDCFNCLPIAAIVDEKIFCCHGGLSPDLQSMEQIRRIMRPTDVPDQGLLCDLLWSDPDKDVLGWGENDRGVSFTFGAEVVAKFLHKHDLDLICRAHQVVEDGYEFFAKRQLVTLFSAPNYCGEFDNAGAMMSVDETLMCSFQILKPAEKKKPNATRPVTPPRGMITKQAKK
UniProt Q5SWA1, residues 340-698: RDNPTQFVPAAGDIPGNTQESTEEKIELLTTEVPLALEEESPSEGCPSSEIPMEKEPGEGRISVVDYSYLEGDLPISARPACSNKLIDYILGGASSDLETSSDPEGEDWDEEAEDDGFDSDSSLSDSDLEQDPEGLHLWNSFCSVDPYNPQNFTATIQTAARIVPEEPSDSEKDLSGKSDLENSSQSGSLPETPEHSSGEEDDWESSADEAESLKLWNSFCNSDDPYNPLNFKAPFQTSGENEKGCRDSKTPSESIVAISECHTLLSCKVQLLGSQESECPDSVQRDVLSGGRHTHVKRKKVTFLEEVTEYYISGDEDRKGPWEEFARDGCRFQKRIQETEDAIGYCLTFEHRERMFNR

What was measured:
[1] = molecular target: biotinylated BAP-tagged human PP1γ (human) (UniProt P36873); assay: SPR (Biacore T200), biotin-PP1 on SA chip, regulatory subunit injected
[2] = molecular target: biotinylated BAP-tagged human PP1γ (human) (UniProt P36873); assay: SPR, BAP-PP1γ on SA chip, 10 µM PPP1R15A/B injected for 80 s
[3] = molecular target: biotinylated BAP-tagged human PP1γ (human) (UniProt P36873); assay: SPR (Biacore T200), bio-PP1c on SA chip, regulatory subunit injected, 10° C.

Measured: binding

MBP-R15B^340-698-His (from UniProt Q5SWA1 340-698)
binds: [1] | [2] | [3]
